Laboratory results: PubChem BioAssay AID686937 (Drosophila RNAi Screening Center, 2013)
Purpose: 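Genes whose loss weakens secretory pathway function in fly cells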 (primary screen). System: Drosophila S2 cells expressing secreted horseradish peroxidase. Knock-down reagent: long dsRNA against Drosophila genes. Timing: about 5.5 days (5 days dsRNA, then 12 h reporter induction). Challenge: reporter expression induced after 5 days of dsRNA, read 12 h later; inducer not stated. Measurement: 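After 5 days of dsRNA and 12 h of reporter induction, medium peroxidase read by chemiluminescence and scored as per-plate z-score; higher values mean more reporter released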. Scale: z-score: higher = more reporter secreted into medium.
The deposit covers about 23,000 reagents; below is an unselected part of those with a known target gene and a result. 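Reduced-secretion tags in replicate 1 do not always agree with the z-scores; no criterion for assigning the tags was given.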 A plus sign joins genes that one reagent is predicted to hit. Not given: the amount of reagent.

| Target gene | dsRNA | z-score, replicate 1 | z-score, replicate 2 | z-score, replicate 3 | z-score, replicate 4 | phenotype, replicate 1 |
| --- | --- | --- | --- | --- | --- | --- |
| PIP82 | DRSC18694 | 0.34 | -0.01 | – | – | – |
| betaNACtes2 (Nascent-associated complex beta-subunit-like, testis 2) | DRSC19792 | 0.27 | 0.34 | – | – | – |
| ex (expanded) | DRSC00817 | 0.19 | 0.47 | – | – | – |
| dyw (daywake) | DRSC18228 | 0.23 | 0.4 | – | – | – |
| Not3 (CCR4-NOT transcription complex subunit 3) | DRSC04908 | -0.47 | -0.62 | – | – | – |
| se (sepia) | DRSC10713 | 0.38 | 0.38 | – | – | – |
| CG6996 | DRSC10758 | 0.42 | 0.6 | – | – | – |
| Ir52c (Ionotropic receptor 52c) | DRSC21801 | 1.26 | 0.62 | – | – | – |
| Cpr35B (Cuticular protein 35B) | DRSC01949 | 0.16 | 0.12 | 0.3 | 0.46 | – |
| Cpr35B (Cuticular protein 35B) | DRSC22797 | 1.04 | 0.56 | – | – | – |
| CG7707 | DRSC10903 | 0.08 | -0.35 | – | – | – |
| AnxB11 (Annexin B11) | DRSC19331 | 0.51 | 0.4 | – | – | – |
| ncm (nucampholin) | DRSC02179 | -3.47 | -1.93 | – | – | reduced secretion |
| CSN1b (COP9 signalosome subunit 1b) | DRSC11108 | -0.64 | -0.59 | – | – | – |
| CG17193 | DRSC15187 | 0.43 | 0.24 | – | – | – |
| Dgp-1 | DRSC07400 | 0.33 | 0.33 | – | – | – |
| Gart (GART trifunctional enzyme) | DRSC03481 | 0.03 | 0.05 | – | – | – |
| Ddc (Dopa decarboxylase) | DRSC03314 | 0.1 | 0.45 | – | – | – |
| Oatp74D (Organic anion transporting polypeptide 74D) | DRSC09491 | 0.5 | 0.03 | – | – | – |
| Oatp74D (Organic anion transporting polypeptide 74D) | DRSC10883 | 0.18 | 0.37 | – | – | – |
| CG8399 | DRSC07163 | 0.29 | 0.16 | – | – | – |
| Obp46a (Odorant-binding protein 46a) | DRSC06220 | 0.42 | 0.04 | – | – | – |
| CG31076 | DRSC16017 | 0.3 | -0.22 | – | – | – |
| sni (sniffer) | DRSC17770 | 0.15 | 0.4 | – | – | – |
| CG33296 | DRSC00998 | -0.16 | -0.04 | – | – | – |
| CG14110 | DRSC10113 | 0.68 | 0.4 | – | – | – |
| CG13227 | DRSC06347 | 0.43 | 0.43 | 0.49 | 0.39 | – |
| mtDNA-helicase (mitochondrial DNA helicase) | DRSC02912 | 0.39 | 0.29 | – | – | – |
| Ndae1 (Na[+]-driven anion exchanger 1) | DRSC00975 | -0.9 | 0.18 | – | – | – |
| Ndae1 (Na[+]-driven anion exchanger 1) | DRSC02770 | 0.04 | 0.19 | – | – | – |
| dpr12 (defective proboscis extension response 12) | DRSC04814 | -3.13 | – | – | – | reduced secretion |
| dpr12 (defective proboscis extension response 12) | DRSC04863 | 0.25 | 0.32 | – | – | – |
| dpr12 (defective proboscis extension response 12) | DRSC04892 | 0.57 | 0.41 | – | – | – |
| sphinx2 | DRSC22188 | -0.05 | -0.12 | – | – | – |
| CG33223 | DRSC17572 | -0.08 | 0.17 | – | – | – |
| Cp36 (Chorion protein 36) | DRSC18452 | 0.21 | 0.4 | – | – | – |
| CG43326 + CG43325 | DRSC04157 | 0.25 | 0.37 | – | – | – |

13 consecutive records already listed:
| Target gene | dsRNA | z-score, replicate 1 | z-score, replicate 2 | z-score, replicate 3 | z-score, replicate 4 | phenotype, replicate 1 |
| --- | --- | --- | --- | --- | --- | --- |
| AnxB11 (Annexin B11) | DRSC19331 | 0.51 | 0.4 | – | – | – |
| ncm (nucampholin) | DRSC02179 | -3.47 | -1.93 | – | – | reduced secretion |
| CSN1b (COP9 signalosome subunit 1b) | DRSC11108 | -0.64 | -0.59 | – | – | – |
| CG17193 | DRSC15187 | 0.43 | 0.24 | – | – | – |
| Dgp-1 | DRSC07400 | 0.33 | 0.33 | – | – | – |
| Gart (GART trifunctional enzyme) | DRSC03481 | 0.03 | 0.05 | – | – | – |
| Ddc (Dopa decarboxylase) | DRSC03314 | 0.1 | 0.45 | – | – | – |
| Oatp74D (Organic anion transporting polypeptide 74D) | DRSC09491 | 0.5 | 0.03 | – | – | – |
| Oatp74D (Organic anion transporting polypeptide 74D) | DRSC10883 | 0.18 | 0.37 | – | – | – |
| CG8399 | DRSC07163 | 0.29 | 0.16 | – | – | – |
| Obp46a (Odorant-binding protein 46a) | DRSC06220 | 0.42 | 0.04 | – | – | – |
| CG31076 | DRSC16017 | 0.3 | -0.22 | – | – | – |
| sni (sniffer) | DRSC17770 | 0.15 | 0.4 | – | – | – |

The list goes on:
| Target gene | dsRNA | z-score, replicate 1 | z-score, replicate 2 | z-score, replicate 3 | z-score, replicate 4 | phenotype, replicate 1 |
| --- | --- | --- | --- | --- | --- | --- |
| cyp33 (cyclophilin-33) | DRSC07600 | -3.87 | -4.14 | – | – | reduced secretion |
| CG14422 | DRSC17919 | 0.37 | 0.33 | – | – | – |
| Unr (Upstream of N-ras) | DRSC10761 | 0.01 | -0.67 | – | – | – |
| Unr (Upstream of N-ras) | DRSC22959 | -0.32 | -0.22 | – | – | – |
| Atg3 (Autophagy-related 3) | DRSC10736 | -1.23 | 0.34 | 0.25 | -0.16 | – |
| Atg3 (Autophagy-related 3) | DRSC21758 | -0.82 | -0.53 | – | – | – |
| Jon99Ciii (Jonah 99Ciii) | DRSC16859 | -2.75 | -1.05 | – | – | reduced secretion |
| C3G (C3G guanyl-nucleotide exchange factor) | DRSC17745 | 0.15 | 0.4 | – | – | – |
| C3G (C3G guanyl-nucleotide exchange factor) | DRSC17929 | 0.29 | 0.42 | – | – | – |
| C3G (C3G guanyl-nucleotide exchange factor) | DRSC22329 | 0.7 | -0.08 | – | – | – |
| CG15914 | DRSC19739 | 0.47 | 0.62 | – | – | – |
| CG12020 | DRSC08226 | 0.25 | 0.32 | – | – | – |
| beta-Man (beta-Mannosidase) | DRSC12208 | 0.27 | 0.27 | – | – | – |
| beta-Man (beta-Mannosidase) | DRSC12209 | 0.35 | 0.42 | – | – | – |
| CG4362 | DRSC15567 | 0.33 | 0.52 | – | – | – |
| CR33013 (pseudo) | DRSC06286 | -0.42 | -0.36 | – | – | – |
| Ank2 (Ankyrin 2) | DRSC08894 | -0.02 | 0.29 | – | – | – |
| Ank2 (Ankyrin 2) | DRSC09666 | 0.37 | 0.34 | – | – | – |
| Ank2 (Ankyrin 2) | DRSC10338 | 0.2 | 0.3 | – | – | – |
| Ank2 (Ankyrin 2) | DRSC11278 | -0.05 | 0.38 | – | – | – |
| Ank2 (Ankyrin 2) | DRSC22922 | -0.03 | -0.2 | – | – | – |
| Mal-B2 (Maltase B2) | DRSC02417 | 0.76 | 0.36 | – | – | – |
| PGRP-SB1 (Peptidoglycan recognition protein SB1) | DRSC11090 | 0.13 | 0.17 | – | – | – |
| bru2 (bruno 2) | DRSC01246 | -0.01 | -0.19 | – | – | – |
| bru2 (bruno 2) | DRSC01247 | -1.7 | -1.39 | – | – | reduced secretion |
| bru2 (bruno 2) | DRSC01249 | 0.26 | -0.29 | – | – | – |
| bru2 (bruno 2) | DRSC01250 | -0.19 | -0.05 | – | – | – |
| bru2 (bruno 2) | DRSC02557 | -2.7 | -2.79 | – | – | reduced secretion |
| NtR | DRSC04628 | 0.2 | 0.25 | – | – | – |
| Mrgn1 (Mahogunin ring finger 1) | DRSC20223 | 0.03 | -0.07 | – | – | – |
| SPH93 (Serine protease homolog 93) | DRSC02978 | 0.43 | 0.16 | – | – | – |
| CG13148 | DRSC06275 | -0.5 | -0.48 | – | – | – |
| CG3611 | DRSC04395 | 0.16 | 0.22 | – | – | – |
| ChT (Choline transporter) | DRSC16296 | 0.29 | 0.2 | – | – | – |
| CG5758 | DRSC02889 | 0.26 | -0.56 | -0.36 | -0.05 | – |
| CG5758 | DRSC02890 | -0.47 | 0.05 | – | – | – |
| CG4714 | DRSC06883 | 0.33 | 0.33 | – | – | – |
| CG10834 | DRSC03693 | -0.1 | -0.29 | – | – | – |
| P5CS (Delta[1]-pyrroline-5-carboxylate synthase) | DRSC11831 | 0.29 | 0.21 | – | – | – |
| P5CS (Delta[1]-pyrroline-5-carboxylate synthase) | DRSC11832 | 0.18 | 0.15 | – | – | – |
| CG14000 | DRSC02332 | 0.06 | 0.07 | – | – | – |
| Osi20 (Osiris 20) | DRSC12568 | 0.5 | 0.52 | – | – | – |
| p53 | DRSC17024 | 0.23 | 0.31 | – | – | – |
| CG14708 | DRSC14930 | 0.38 | 0.4 | – | – | – |
| lncRNA:mimi (mimi) | DRSC21429 | -0.31 | -0.28 | – | – | – |
